PubChem BioAssay AID493246 – Drosophila RNAi Screening Center | 2011
The screen tested about 21,000 reagents; below is an unselected part of those with a known target gene and a result. In the full data, 429 (2%) are marked active. 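Values are raw and not normalised between plates; calls rest on per-plate z-scores that were not deposited.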 A number with no mark means an inactive call. Reagents against one gene are numbered here. Names joined by + are all predicted targets of the reagent. Not stated in the record: the amount of reagent, the time to read-out.

- Aim: 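Identify essential fly genes by loss of cell viability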 (primary screen)
- System: Drosophila Kc and S2R+ cells
- Knock-down reagent: long dsRNA against Drosophila genes
- Detection: 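Cell number per well after knock-down, printed as raw plate values; calls were based on per-plate z-scores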
- Scale: Kc cell number and S2R+ cell number: higher = more cells remaining
- Active means: 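Counted as a hit if cell number falls by a z-score of at least 3 within its plate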

What is on record for CG15472?
Kc cell number, rep 1: 1.54e6; Kc cell number, rep 2: 1.53e6; S2R+ cell number, rep 1: 1.07e6; S2R+ cell number, rep 2: 1.14e6

Which result is listed for CG41099 #1?
Kc cell number, rep 1: 1.44e6; Kc cell number, rep 2: 1.52e6; S2R+ cell number, rep 1: 1.05e6; S2R+ cell number, rep 2: 1.11e6

What is on record for CG41099 #2?
Kc cell number, rep 1: 1.44e6; Kc cell number, rep 2: 1.44e6; S2R+ cell number, rep 1: 1.04e6; S2R+ cell number, rep 2: 1.11e6

With CG13623, how do the results read?
Kc cell number, rep 1: 1.52e6; Kc cell number, rep 2: 1.66e6; S2R+ cell number, rep 1: 7.04e5; S2R+ cell number, rep 2: 8.48e5

For CG34228, what does the deposit list?
Kc cell number, rep 1: 1.45e6; Kc cell number, rep 2: 1.53e6; S2R+ cell number, rep 1: 1.08e6; S2R+ cell number, rep 2: 1.24e6

2 entries from above, showing only “Kc cell number, rep 1”:
CG41099 #2	1.44e6
CG13623	1.52e6

Continued.
How did the screen score CG33269?
Kc cell number, rep 1: 1.21e6; Kc cell number, rep 2: 1.22e6; S2R+ cell number, rep 1: 1.11e6; S2R+ cell number, rep 2: 1.17e6

What is on record for CG17780?
Kc cell number, rep 1: 1.34e6; Kc cell number, rep 2: 1.53e6; S2R+ cell number, rep 1: 1.03e6; S2R+ cell number, rep 2: 1.15e6

For salt (salty dog), what was measured?
Kc cell number, rep 1: 5.62e5; S2R+ cell number, rep 1: 7.81e5

With dah (discontinuous actin hexagon), what does the deposit list?
Kc cell number, rep 1: 5.56e5; S2R+ cell number, rep 1: 8.35e5

How did the screen score CG6026?
Kc cell number, rep 1: 1.41e6; Kc cell number, rep 2: 1.43e6; S2R+ cell number, rep 1: 1.01e6; S2R+ cell number, rep 2: 1.20e6

Which result is listed for Mocs2A + Mocs2B?
Kc cell number, rep 1: 1.40e6; Kc cell number, rep 2: 1.49e6; S2R+ cell number, rep 1: 1.00e6; S2R+ cell number, rep 2: 1.09e6

For CG46441, what does the deposit list?
Kc cell number, rep 1: 1.50e6; Kc cell number, rep 2: 1.65e6; S2R+ cell number, rep 1: 1.16e6; S2R+ cell number, rep 2: 1.25e6

What did the screen give for Ndf (Nucleosome-destabilizing factor)?
Kc cell number, rep 1: 1.30e6; Kc cell number, rep 2: 1.37e6; S2R+ cell number, rep 1: 1.22e6; S2R+ cell number, rep 2: 1.23e6

What is on record for Tsp42En (Tetraspanin 42En)?
Kc cell number, rep 1: 1.53e6; Kc cell number, rep 2: 1.59e6; S2R+ cell number, rep 1: 1.28e6; S2R+ cell number, rep 2: 1.54e6
